From PubChem BioAssay AID1347075 (National Center for Advancing Translational Sciences (NCATS), 2019)
In all, about 400,000 compounds went through this assay and about 5,500 (1.4%) were called active. Inconclusive results, whose numbers are uncertain, are shown with a selection of clear calls. Calls come from the whole dose curve; as a rule, active = well fitted cell-killing curve with a large enough effect; inconclusive = small, poorly fitted or top-dose-only effect, or effect the other way; inactive = flat fitted curve, though single readings scatter. Where the call is inconclusive, the potency comes from a doubtful curve fit.

test: qHTS assay for MDR1-selective chemotherapeutics: Primary screen using the parental adenocarcinoma cell KB-3-1; conditions: KB-3-1 viability, CellTiter-Glo ATP luminescence, 72 h; activity change, negative = cytotoxic: at 46.1 µM (top of the series); note: nearly all actives have a fitted effect of over 60% in size
Procedure, shortened: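 Viability of parental KB-3-1 cells, measured by CellTiter-Glo luminescence, followed a 72 h incubation at 37 °C with pinned compounds in phenol-red-free DMEM containing 10% FBS.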
% is set by controls: 0 for no effect and ±100 for the full control effect; potency is the fitted concentration of half-maximal effect.

Structure (SMILES) | Potency | activity change, negative = cytotoxic
COc1ccc(S(=O)(=O)Nc2cc3c(C(=O)OC(C)C)c(C)oc3c3ccccc23)cc1 | inconclusive: 9.2 µM [cytotoxic, partial curve] | 
Cc1ccc2[nH]c(C(=O)N3CCN(C(c4ccccc4)c4ccccc4)CC3)cc2c1 | inconclusive: 20.6 µM [cytotoxic, single point] | 
Nc1[nH]c(C(=O)c2ccc(Br)cc2)c(-c2ccc(Br)cc2)c1C(=O)NCCc1c[nH]c2ccccc12 | inconclusive: 29.1 µM [cytotoxic, single point] | 
O=C(NC1=NCCS1)C1CCN(S(=O)(=O)c2cc([N+](=O)[O-])ccc2Cl)CC1 | inconclusive: 29.1 µM [cytotoxic, single point] | 
Cc1cc(N2C(=O)C(O)=C(C(=O)c3cc4ccccc4o3)C2c2ccc(Br)cc2)no1 (configuration not stated) | inactive | 
Cc1cccc(NC(=O)CC2CCC2)c1 | inconclusive: 29.1 µM [cytotoxic, single point] | 
COc1ccc(C(=O)Nc2cccc(C(=O)NCc3ccco3)c2)cc1 | inconclusive: 20.6 µM [cytotoxic, single point] | 
COc1ccccc1C(=O)NCCNc1nc2cc(C)cc(C)c2cc1C#N | inactive | 
Cc1cccc(NC(=O)CSc2nnc(CNC(=O)c3ccc(S(=O)(=O)N(C)C)cc3)n2-c2ccccc2)c1 | inconclusive: 25.9 µM [rising, single point] | 
COc1ccc(-c2nn3c(=O)cc(CN4CCN(S(=O)(=O)c5ccc(C)cc5)CC4)nc3s2)cc1 | inactive | 
COc1cc2c3nnc(-c4ccc(F)cc4)c-3cn(Cc3ccccc3)c2cc1OC | inconclusive: 23.1 µM [cytotoxic, partial curve, poor fit] | 
O=C(NCCN1CCC(n2c(=O)[nH]c3ccccc32)CC1)c1ccc(F)c(F)c1 |  | inconclusive: -6.63%
CCOc1cc2c(cc1C(C)(C)C)NC(=O)CS2 | inconclusive: 23.1 µM [cytotoxic, single point] | 
O=C(Nc1ncnc2sc3c(c12)CCCCC3)c1ccc(F)cc1 | inconclusive: 29.1 µM [cytotoxic, single point] | 
Cc1ccccc1C(=O)Nc1ccccc1-c1nnn(CC(=O)Nc2ccc3c(c2)OCCO3)n1 | inconclusive: 32.6 µM [cytotoxic, single point] | 
COc1cccc(NS(=O)(=O)c2ccc3c(c2)N(C)C(=O)CC(=O)N3C)c1 | inactive | 
CCOc1ccccc1N(C)C(=O)Cn1ncc2c([nH]c3ccc(C)cc32)c1=O | inconclusive: 18.4 µM [cytotoxic, single point] | 
Cc1cc(S(=O)(=O)Nc2ccc(C(=O)O)cc2)c(C)c(S(=O)(=O)c2ccc(Cl)cc2)c1 | inactive | 
CC(C)(C)OC(=O)N1CCC(C(=O)Nc2ccc(C(=O)N3CCOCC3)cc2)CC1 | inconclusive: 10.3 µM [rising, partial curve] | 
CCOC(=O)c1nnn(-c2ccc(OC)cc2)c1N | inconclusive: 23.1 µM [rising, single point] | 
Cc1nn(-c2ccccc2)c(C)c1/C=N/NC(=O)c1cc(-c2ccc(Cl)s2)[nH]n1 | active: 2.91 µM | 
C/C=C\C=C\C(=O)Nc1cccc(C2=NOC3(C2)C[C@@H](C(N)=O)N(C(=O)C(c2ccccc2)c2ccccc2)C3)c1 (some centres not stated) | inconclusive: 20.6 µM [cytotoxic, single point] | 
O=S(=O)(Nc1ccc(Cc2ccncc2)cc1)c1ccc(Cl)c(Cl)c1 | inconclusive: 20.6 µM [cytotoxic, partial curve] | 

A draw from above in order of molar mass, largest number first.
Structure (SMILES) | Potency | activity change, negative = cytotoxic
Nc1[nH]c(C(=O)c2ccc(Br)cc2)c(-c2ccc(Br)cc2)c1C(=O)NCCc1c[nH]c2ccccc12 | inconclusive: 29.1 µM [cytotoxic, single point] | 
Cc1cc(S(=O)(=O)Nc2ccc(C(=O)O)cc2)c(C)c(S(=O)(=O)c2ccc(Cl)cc2)c1 | inactive | 
Cc1cc(N2C(=O)C(O)=C(C(=O)c3cc4ccccc4o3)C2c2ccc(Br)cc2)no1 (configuration not stated) | inactive | 

(listing goes on)

Structure (SMILES) | Potency | activity change, negative = cytotoxic
O=[N+]([O-])c1nc2ccccc2[nH]1 | inconclusive: 16.4 µM [cytotoxic, single point] | 
O=C(CNc1cc(S(=O)(=O)N2CCOCC2)ccc1NCC1CCCO1)Nc1cccc(F)c1 (configuration not stated) | inconclusive: 29.1 µM [rising, single point] | 
O=C(Nc1ccc(Br)cc1F)N1CC=C(c2c[nH]c3ccccc23)CC1 | inconclusive: 3.66 µM [cytotoxic, full curve] | 
O=C(COc1coc(CN2CCCc3ccccc32)cc1=O)Nc1ccccc1 | inactive | 
O=C(O)c1cccc(NC2=C(Cl)C(=O)c3ccccc3C2=O)c1 | inconclusive: 20.6 µM [cytotoxic, single point] | 
COc1cc(OC)c(NS(=O)(=O)c2ccc(Cl)c(C(=O)OC(C)C(=O)N3CCCC3)c2)cc1Cl (configuration not stated) | active: 16.4 µM | 
CC1(C(=O)NCCc2ccccc2)Cc2c(-c3cccc(C(F)(F)F)c3)ccnc2O1 (configuration not stated) | inconclusive: 29.1 µM [cytotoxic, single point] | 
C=CCn1c(O)c(N=Nc2ccccc2C)c2ccccc21 | inconclusive: 9.2 µM [cytotoxic, partial curve, poor fit] | 
COP(=O)(OC)c1nc(-c2ccc([N+](=O)[O-])cc2)oc1N1CCCCC1 | inactive | 
CC(C)N1CC(C(=O)Nc2ccccc2)CC1=O (configuration not stated) | inactive | 
Cc1ccc(NS(=O)(=O)c2cc(-c3cnc(C4CC4)o3)ccc2C)cc1Cl | inconclusive: 4.61 µM [cytotoxic, full curve, poor fit] | 
c1ccc(-c2nn3c(C4CCCCC4)nnc3s2)cc1 | inconclusive: 16.4 µM [rising, partial curve, poor fit] | 
Nc1c(C(=O)Nc2ccccc2F)sc2nc3c(cc12)CCCCCC3 | active: 13 µM | 
COC(=O)c1cc(CSc2nnc(NC3CCCCC3)s2)oc1C | inconclusive: 6.51 µM [cytotoxic, partial curve, poor fit] | 
O=c1c2sc3nc(N4CCOCC4)c4c(c3c2ncn1CCc1ccccc1)CCCC4 | inactive | 
Cc1ccnc2c1ccc1c(C)ccnc12 | inconclusive: 6.51 µM [cytotoxic, full curve] | 
COCc1cc(=O)n2[nH]cc(-c3ccccc3)c2n1 | inconclusive: 18.4 µM [cytotoxic, single point] | 
CCOC(=O)c1[nH]c2cc3c(cc2c1NC(=O)CN1CC(C)CC(C)C1)OCO3 (configuration not stated) | inconclusive: 20.6 µM [cytotoxic, partial curve, poor fit] | 
COc1ccccc1-c1cc(C(=O)N/N=C\c2cn(C)nc2C)c2ccccc2n1 | inactive | 
CCOc1ccc(C(=O)C2CCN(CC(=O)Nc3nccs3)CC2)cc1 | inconclusive: 25.9 µM [cytotoxic, single point] | 
CCN(CC)c1ccc(C(=O)NCc2ccc3c(c2)CCN3C(=O)c2ccc(F)cc2)cc1 | active: 14.6 µM | 
COc1cccc(OCc2nc3ncc(Br)cc3[nH]2)c1 | active: 5.8 µM | 
COc1ccccc1-c1cc(C(=O)Nc2cc(OC)c(OC)c(OC)c2)no1 | inconclusive: 1.84 µM [cytotoxic, full curve, poor fit] | 

Structure (SMILES) | Potency | activity change, negative = cytotoxic
CCn1c2ccccc2c2nnc(SCN3C(=O)c4ccccc4C3=O)nc21 | inconclusive: 25.9 µM [cytotoxic, partial curve, poor fit] | 
COc1ccc(C2=NOC(C(=O)NCc3ccco3)C2)cc1 (configuration not stated) | active: 13 µM | 
CC(C)Nc1nc(Cl)nc(NCCOc2ccccc2)n1 | inconclusive: 14.6 µM [cytotoxic, single point] | 
Cc1cs/c(=N\N=C\c2ccccc2)n1Cc1ccco1 | inconclusive: 29.1 µM [cytotoxic, single point] | 
O=c1c(-c2ccco2)nc2ccccc2n1C(CCc1ccccc1)c1nc2ccccc2[nH]1 (configuration not stated) | inactive | 
N#C/C(=C\c1ccc([N+](=O)[O-])cc1)C(=O)NCCCn1ccnc1 | inconclusive: 0.0046 µM [rising, full curve] | 
Cc1ccccc1-n1cnnc1SCC(=O)Nc1cccnc1Cl | inconclusive: 29.1 µM [rising, single point] | 
COCC(C)n1c(C)cc(C(=O)COc2ccc(C)nc2[N+](=O)[O-])c1C (configuration not stated) | inconclusive: 14.6 µM [cytotoxic, single point] | 
O=C(O)c1ccc(CNCc2ccccc2Cl)s1 | inactive | 
Cc1ccc(NC(=O)C2CC(=O)N(Cc3ccccc3)C2)cc1S(=O)(=O)N1CCCCCC1 (configuration not stated) | inconclusive: 16.4 µM [cytotoxic, single point] | 
CCNC(=O)N(C)C[C@H]1N[C@@](Cc2ccccc2)(C(=O)OC)[C@H]2C(=O)N(C)C(=O)[C@@H]12 |  | inconclusive: 36%
C/C(=N\NC(=O)c1ccc(Cl)cc1)c1ccccn1 | inconclusive: 1.16 µM [cytotoxic, full curve, poor fit] | 
Cc1cc(C)c(S(=O)(=O)N2CCc3ccccc32)c(C)c1 | inconclusive: 14.6 µM [cytotoxic, partial curve, poor fit] | 
CCOC(=O)[C@]12CCC=C1N(Cc1cccc3ccccc13)C(=O)[C@H](CC(=O)N1CCCC1)C2 | inactive | 
O=C1C(Cl)=C(NCCN2CCOCC2)C(=O)c2ccccc21 | inconclusive: 16.4 µM [cytotoxic, single point] | 
CCCOc1ccc(CNC(=O)CCCn2nc(C)c3sc4ccccc4c3c2=O)cc1 | inactive | 
CSc1nc2cc(S(=O)(=O)N3CCCCC3)ccc2s1 | inconclusive: 18.4 µM [cytotoxic, single point] | 
Cc1cccc(CN2C(=O)[C@H]3Cc4c([nH]c5ccccc45)C(C)(C)N3C2=O)c1 | inconclusive: 29.1 µM [cytotoxic, single point] | 
CC1(C(=O)Nc2cccc(Oc3ccccc3)c2)Cc2c(-c3ccc4c(c3)OCO4)ccnc2O1 (configuration not stated) | active: 4.61 µM | 
Cc1ccc(S(=O)(=O)NCCC(=O)NCC(c2cccs2)N(C)C)cc1 (configuration not stated) | inactive | 
COC(=O)C(C)N(C(=O)c1cccc2ccccc12)c1c(C)cccc1C (configuration not stated) | inactive | 
